# No constants are given. Whether binding was seen depends on the method and setting. In cells and extracts the contact can be indirect. A result given as binding can be weak or reduced; the word gives no strength.
# B1: D-lactate dehydrogenase (LDHD) (enzyme, UniProt Q86WU2 53-507)
# chain: QHGRDESVHRCEPPDAVVWPQNVEQVSRLAALCYRQGVPIIPFGTGTGLEGGVCAVQGGVCVNLTHMDRILELNQEDFSVVVEPGVTRKALNAHLRDSGLWFPVDPGADASLCGMAATGASGTNAVRYGTMRDNVLNLEVVLPDGRLLHTAGRGRHFRFGFWPEIPHHTAWYSPCVSLGRRKSAAGYNLTGLFVGSEGTLGLITATTLRLHPAPEATVAATCAFPSVQAAVDSTVHILQAAVPVARIEFLDEVMMDACNRYSKLNCLVAPTLFLEFHGSQQALEEQLQRTEEIVQQNGASDFSWAKEAEERSRLWTARHNAWYAALATRPGCKGYSTDVCVPISRLPEIVVQTKEDLNASGLTGSIVGHVGDGNFHCILLVNPDDAEELGRVKAFAEQLGRRALALHGTCTGEHGIGMGKRQLLQEEVGAVGVETMRQLKAVLDPQGLMNPGKVL
# Target: YAP-TEAD complex (human)
# Test: co-IP; cell line not stated; 1% NP-40 lysis buffer (50 mM Tris-HCl pH 7.4, 150 mM NaCl, 5 mM EDTA), protein A/G magnetic beads, anti-YAP or anti-LDHD antibody, IgG control, 4 °C
binder,measurement,value
B1,binding,binds

# Source: paper PMC10427695
